Changes are numbered by the printed parent chain. Results are given in words; binding and its absence hold for the method and conditions named. A result given as binding can be weak or reduced; the word gives no strength. One block for each binder: values may come before it.
Key:
[1] = target: recombinant E.coli-expressed cynomolgus IL-13 (cynomolgus); assay: sandwich ELISA
[2] = target: recombinant E.coli-expressed cynomolgus IL-13 (cynomolgus); assay: sandwich ELISA on captured E.coli-expressed cynomolgus IL-13, titrated purified mAb
[3] = target: recombinant E.coli-expressed cynomolgus IL-13 (cynomolgus); assay: sandwich ELISA: captured E.coli-expressed cynomolgus IL-13, titrated supernatant of CHO cells transfected with chimaeric 6A1
[4] = target: recombinant E.coli-expressed cynomolgus IL-13 (cynomolgus); assay: sandwich ELISA, CHO supernatant and purified antibody
[5] = target: recombinant E.coli-expressed cynomolgus IL-13 (cynomolgus); assay: BIAcore
[6] = target: recombinant E.coli-expressed cynomolgus IL-13 (cynomolgus); assay: Western blot after denaturing SDS-PAGE

B1: humanised anti-IL-13 antibody L1+A1 (antibody, human IgG1, kappa, V domains shown)
VH: QVQLVQSGAEVKKPGSSVKVSCKASGFYIKDTYMHWVRQAPGQGLEWMGTIDPANGNTKYVPKFQGRVTITADESTSTAYMELSSLRSEDTAVYYCARSIYDDYHYDDYYAMDYWGQGTLVTVSS
VL: DIVMTQSPLSLPVTPGEPASISCRSSQNIVHINGNTYLEWYLQKPGQSPRLLIYKISDRFSGVPDRFSGSGSGTDFTLKISRVEADDVGIYYCFQGSHVPWTFGQGTKLEIKR
binding [1]: binds
binding [2]: binds

B3: chimaeric 6A1 monoclonal antibody (antibody, human IgG1, V domains shown)
VH: EIQLQQSVAELVRPGASVRLSCTASGFYIKDTYMHWVIQRPEQGLEWIGTIDPANGNTKYVPKFQGKATITADTSSNTAYLRLSSLTSEDTAIYYCARSIYDDYHYDDYYAMDYWGQGTSVTVSS
VL: DVLMTQTPLSLPVSLGDQASISCRSSQNIVHINGNTYLEWYLQKPGQSPKLLIYKISDRFSGVPDRFSGSGSGTDFTLKISRVEAEDLGVYYCFQGSHVPWTFGGGTKLEIK
binding [3]: binds
binding [4]: binds
binding [1]: binds
binding [2]: binds

The next lines start with the values.

binding [1]: binds
binding [2]: binds
B2: humanised anti-IL-13 antibody L2+A1 (antibody, human IgG1, kappa, V domains shown)
VH: B1 VH
VL: B1 VL with I90V

binding [5]: binds
binding [6]: binds
B4: mouse monoclonal antibody 6A1 (antibody, mouse IgG1, V domains shown)
VH: B3 VH
VL: B3 VL

— patent US7807788
